This is one part of the list.
Compound: C1=CC=C2C(=C1)C3=NNC4=CC=CC(=C43)C2=O
Assay: log2 fold change, soluble protein after heating vs DMSO (PISA); higher = thermal stabilisation; K562 cells, 10 uM, 30 min; active = over 0.2 and 3.5 SD of the protein, either way, in both replicates (recomputed)
How it was run: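 For each measurement, 10 μM compound was applied for 30 min to K562 cells at 2×10^6 cells/mL. Aliquots were heated for 3 min across 48°C-58°C, pooled, and extracted in PBS with 0.5% NP-40 at 4°C; the supernatant after 21,000xg for 90 min was soluble protein. This was quantified by TMTpro 16plex LC-MS/MS with channel sums equalised, and thermal stability was reported relative to control samples from duplicates, on a log2 fold-change scale.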

Sequences of proteins named here, by UniProt entry; tags and fusion partners are left off. A change or cut given only in a name is not applied to a line headed by its entry.
UniProt Q13480: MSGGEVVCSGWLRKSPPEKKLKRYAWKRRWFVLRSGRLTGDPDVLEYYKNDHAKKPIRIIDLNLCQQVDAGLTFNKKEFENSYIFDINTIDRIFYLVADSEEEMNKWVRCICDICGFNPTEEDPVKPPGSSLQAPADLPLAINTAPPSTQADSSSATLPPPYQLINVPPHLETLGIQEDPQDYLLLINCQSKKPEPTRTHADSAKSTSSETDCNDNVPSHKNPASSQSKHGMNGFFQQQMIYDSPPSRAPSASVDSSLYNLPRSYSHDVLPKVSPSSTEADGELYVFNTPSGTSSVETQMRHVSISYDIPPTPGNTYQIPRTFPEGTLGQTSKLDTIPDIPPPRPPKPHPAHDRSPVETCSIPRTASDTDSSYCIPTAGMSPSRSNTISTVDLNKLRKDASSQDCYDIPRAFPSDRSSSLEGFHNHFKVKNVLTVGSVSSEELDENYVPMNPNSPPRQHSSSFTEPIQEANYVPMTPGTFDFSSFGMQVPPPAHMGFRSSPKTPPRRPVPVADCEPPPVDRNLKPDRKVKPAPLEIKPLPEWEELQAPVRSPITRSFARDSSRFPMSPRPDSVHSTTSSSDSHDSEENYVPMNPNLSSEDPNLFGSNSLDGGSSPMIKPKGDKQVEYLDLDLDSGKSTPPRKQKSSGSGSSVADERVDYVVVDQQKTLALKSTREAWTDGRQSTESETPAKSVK
UniProt Q01415: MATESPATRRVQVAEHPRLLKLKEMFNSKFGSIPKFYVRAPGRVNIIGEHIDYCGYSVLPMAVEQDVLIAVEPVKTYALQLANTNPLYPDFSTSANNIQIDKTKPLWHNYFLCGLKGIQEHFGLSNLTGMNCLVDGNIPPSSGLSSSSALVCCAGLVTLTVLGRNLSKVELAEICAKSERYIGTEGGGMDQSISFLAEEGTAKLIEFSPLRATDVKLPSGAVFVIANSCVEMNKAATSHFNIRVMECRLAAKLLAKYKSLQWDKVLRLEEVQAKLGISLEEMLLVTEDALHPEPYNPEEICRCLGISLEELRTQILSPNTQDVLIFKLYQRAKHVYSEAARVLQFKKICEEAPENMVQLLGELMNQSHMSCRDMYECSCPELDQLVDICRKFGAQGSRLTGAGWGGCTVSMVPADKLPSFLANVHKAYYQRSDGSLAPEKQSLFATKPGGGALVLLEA
UniProt Q9UN86: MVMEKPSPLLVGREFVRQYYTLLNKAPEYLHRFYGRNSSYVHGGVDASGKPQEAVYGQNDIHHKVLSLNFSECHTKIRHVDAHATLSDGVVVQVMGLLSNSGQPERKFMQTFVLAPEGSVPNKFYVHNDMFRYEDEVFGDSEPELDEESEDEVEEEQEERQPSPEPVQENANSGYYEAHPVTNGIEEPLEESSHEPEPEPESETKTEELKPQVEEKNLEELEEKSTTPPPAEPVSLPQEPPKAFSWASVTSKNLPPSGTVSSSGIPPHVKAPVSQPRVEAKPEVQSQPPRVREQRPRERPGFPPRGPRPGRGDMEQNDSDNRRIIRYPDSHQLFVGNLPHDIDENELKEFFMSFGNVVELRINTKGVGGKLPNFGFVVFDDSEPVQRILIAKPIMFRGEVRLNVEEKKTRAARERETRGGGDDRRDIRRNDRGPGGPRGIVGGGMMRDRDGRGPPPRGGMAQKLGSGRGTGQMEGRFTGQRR
UniProt Q9BWH2: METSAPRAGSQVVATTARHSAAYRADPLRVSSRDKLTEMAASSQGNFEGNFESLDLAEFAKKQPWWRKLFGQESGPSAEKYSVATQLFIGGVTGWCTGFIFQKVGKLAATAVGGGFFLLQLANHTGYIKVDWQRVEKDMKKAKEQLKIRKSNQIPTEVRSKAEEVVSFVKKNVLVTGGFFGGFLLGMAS
UniProt Q16595: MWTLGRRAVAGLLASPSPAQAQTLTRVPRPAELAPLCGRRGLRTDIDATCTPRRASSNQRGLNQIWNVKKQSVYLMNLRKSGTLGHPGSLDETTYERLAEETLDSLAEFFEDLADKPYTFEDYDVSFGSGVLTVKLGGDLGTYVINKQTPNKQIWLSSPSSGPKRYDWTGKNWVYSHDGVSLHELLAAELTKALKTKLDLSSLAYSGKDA
UniProt O95749: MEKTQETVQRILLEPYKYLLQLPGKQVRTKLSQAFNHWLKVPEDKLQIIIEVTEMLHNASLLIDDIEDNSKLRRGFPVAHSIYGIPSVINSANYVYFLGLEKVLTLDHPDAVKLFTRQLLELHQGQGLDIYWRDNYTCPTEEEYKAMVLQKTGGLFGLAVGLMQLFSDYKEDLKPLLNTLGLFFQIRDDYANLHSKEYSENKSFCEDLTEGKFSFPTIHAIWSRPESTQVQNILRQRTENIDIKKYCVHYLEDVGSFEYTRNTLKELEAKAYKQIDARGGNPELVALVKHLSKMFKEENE
UniProt Q92820: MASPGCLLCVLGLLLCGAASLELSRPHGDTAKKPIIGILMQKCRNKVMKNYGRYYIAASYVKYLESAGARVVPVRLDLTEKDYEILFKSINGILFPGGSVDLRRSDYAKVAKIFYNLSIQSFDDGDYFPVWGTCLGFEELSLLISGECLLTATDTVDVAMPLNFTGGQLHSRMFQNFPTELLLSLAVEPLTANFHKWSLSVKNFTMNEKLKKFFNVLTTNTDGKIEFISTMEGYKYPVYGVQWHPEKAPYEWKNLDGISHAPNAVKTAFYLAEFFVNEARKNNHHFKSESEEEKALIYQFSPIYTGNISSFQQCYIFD
UniProt P04406: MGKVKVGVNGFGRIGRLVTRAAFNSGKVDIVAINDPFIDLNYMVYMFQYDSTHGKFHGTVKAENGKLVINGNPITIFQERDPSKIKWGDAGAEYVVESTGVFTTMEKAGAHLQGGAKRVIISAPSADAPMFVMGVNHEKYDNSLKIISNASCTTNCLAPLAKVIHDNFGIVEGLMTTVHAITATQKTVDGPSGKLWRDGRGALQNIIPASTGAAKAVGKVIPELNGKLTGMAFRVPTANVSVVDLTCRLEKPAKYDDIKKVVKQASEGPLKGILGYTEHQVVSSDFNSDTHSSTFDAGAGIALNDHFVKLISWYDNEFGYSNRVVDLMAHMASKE
UniProt P30047: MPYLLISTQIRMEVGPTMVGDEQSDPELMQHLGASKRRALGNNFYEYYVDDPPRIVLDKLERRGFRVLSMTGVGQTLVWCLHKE
UniProt Q8NCL4: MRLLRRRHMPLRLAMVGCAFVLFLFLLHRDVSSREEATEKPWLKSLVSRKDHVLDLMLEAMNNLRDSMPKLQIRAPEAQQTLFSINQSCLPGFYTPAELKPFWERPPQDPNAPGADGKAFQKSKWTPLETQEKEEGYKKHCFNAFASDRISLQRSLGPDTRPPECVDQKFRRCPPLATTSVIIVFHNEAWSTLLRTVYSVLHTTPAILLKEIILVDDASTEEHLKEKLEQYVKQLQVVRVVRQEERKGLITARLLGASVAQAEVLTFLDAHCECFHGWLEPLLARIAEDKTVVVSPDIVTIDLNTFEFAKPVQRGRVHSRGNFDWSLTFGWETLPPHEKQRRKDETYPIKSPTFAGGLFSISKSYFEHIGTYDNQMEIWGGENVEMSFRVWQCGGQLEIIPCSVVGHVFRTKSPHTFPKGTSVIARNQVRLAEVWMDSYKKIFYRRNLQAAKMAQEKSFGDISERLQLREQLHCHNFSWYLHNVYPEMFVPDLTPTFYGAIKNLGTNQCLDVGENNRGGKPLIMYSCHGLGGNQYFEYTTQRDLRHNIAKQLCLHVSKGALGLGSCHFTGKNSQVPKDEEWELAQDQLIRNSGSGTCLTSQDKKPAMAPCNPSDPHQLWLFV
UniProt Q13283, whole entry, looked up: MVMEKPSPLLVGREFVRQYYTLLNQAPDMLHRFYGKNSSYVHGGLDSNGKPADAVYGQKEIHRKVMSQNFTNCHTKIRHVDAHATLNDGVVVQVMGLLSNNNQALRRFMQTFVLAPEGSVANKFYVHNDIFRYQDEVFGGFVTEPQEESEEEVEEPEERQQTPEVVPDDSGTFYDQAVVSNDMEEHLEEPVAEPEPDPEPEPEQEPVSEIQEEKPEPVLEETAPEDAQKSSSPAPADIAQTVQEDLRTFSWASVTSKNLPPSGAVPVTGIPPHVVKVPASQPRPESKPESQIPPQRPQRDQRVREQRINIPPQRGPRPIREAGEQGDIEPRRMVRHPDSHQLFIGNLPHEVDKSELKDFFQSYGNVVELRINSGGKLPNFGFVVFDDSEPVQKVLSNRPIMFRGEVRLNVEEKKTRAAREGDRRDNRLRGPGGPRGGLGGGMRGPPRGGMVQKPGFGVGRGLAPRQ
UniProt Q14697: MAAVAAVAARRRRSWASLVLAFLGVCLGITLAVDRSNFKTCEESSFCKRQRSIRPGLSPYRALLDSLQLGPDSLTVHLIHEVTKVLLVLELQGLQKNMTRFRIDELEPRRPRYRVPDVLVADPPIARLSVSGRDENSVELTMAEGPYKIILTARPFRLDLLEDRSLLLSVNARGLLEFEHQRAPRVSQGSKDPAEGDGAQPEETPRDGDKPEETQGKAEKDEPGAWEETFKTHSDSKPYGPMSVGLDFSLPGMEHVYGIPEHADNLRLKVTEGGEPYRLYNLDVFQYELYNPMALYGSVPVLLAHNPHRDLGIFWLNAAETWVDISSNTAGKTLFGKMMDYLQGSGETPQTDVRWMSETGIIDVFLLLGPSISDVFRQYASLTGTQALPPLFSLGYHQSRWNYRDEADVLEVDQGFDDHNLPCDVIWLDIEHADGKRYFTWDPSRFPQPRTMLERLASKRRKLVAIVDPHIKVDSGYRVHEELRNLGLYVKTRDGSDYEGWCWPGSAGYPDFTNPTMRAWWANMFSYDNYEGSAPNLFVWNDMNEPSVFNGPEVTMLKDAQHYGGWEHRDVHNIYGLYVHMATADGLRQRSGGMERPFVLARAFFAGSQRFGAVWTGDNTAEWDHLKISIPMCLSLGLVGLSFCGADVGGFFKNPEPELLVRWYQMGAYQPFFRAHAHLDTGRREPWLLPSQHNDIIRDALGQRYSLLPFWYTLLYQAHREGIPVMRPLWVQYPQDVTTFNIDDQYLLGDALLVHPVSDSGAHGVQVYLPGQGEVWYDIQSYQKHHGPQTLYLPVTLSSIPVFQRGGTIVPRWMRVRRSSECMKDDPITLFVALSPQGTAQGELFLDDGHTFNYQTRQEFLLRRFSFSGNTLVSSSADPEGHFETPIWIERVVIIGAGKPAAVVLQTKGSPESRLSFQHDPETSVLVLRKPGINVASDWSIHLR
UniProt Q96RP9: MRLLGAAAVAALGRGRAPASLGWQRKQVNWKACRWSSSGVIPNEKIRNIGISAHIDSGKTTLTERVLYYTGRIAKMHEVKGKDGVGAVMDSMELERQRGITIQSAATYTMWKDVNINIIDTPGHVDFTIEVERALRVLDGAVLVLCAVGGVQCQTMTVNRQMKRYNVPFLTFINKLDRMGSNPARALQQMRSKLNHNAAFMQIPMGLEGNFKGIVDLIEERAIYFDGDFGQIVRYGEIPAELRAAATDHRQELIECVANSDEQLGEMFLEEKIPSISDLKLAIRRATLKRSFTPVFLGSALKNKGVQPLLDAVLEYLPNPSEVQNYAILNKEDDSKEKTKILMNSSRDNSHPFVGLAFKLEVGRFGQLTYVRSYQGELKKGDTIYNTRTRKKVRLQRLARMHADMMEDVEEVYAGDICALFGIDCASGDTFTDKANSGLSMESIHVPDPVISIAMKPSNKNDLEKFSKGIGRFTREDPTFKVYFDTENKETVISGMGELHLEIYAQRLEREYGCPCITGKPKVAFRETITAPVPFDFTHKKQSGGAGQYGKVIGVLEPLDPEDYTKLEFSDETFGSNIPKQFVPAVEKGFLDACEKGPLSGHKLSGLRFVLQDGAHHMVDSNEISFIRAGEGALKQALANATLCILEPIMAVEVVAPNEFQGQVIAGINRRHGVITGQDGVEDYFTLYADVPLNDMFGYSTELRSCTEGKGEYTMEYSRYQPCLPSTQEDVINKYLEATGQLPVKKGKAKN
UniProt Q96C23: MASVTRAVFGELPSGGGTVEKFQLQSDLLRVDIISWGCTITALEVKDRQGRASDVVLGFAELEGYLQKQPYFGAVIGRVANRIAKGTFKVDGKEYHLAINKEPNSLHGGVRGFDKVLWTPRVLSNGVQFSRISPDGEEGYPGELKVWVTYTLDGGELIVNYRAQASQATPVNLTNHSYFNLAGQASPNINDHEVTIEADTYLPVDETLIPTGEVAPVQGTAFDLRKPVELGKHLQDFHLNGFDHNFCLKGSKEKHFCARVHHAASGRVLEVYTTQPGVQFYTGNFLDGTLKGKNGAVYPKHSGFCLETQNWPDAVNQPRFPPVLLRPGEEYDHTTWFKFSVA
UniProt P02794, whole entry, looked up: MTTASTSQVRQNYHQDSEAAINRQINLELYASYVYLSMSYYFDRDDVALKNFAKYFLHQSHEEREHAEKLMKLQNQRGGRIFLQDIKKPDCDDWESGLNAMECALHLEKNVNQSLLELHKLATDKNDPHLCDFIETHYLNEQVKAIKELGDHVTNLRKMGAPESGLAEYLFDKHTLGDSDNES
UniProt P55789: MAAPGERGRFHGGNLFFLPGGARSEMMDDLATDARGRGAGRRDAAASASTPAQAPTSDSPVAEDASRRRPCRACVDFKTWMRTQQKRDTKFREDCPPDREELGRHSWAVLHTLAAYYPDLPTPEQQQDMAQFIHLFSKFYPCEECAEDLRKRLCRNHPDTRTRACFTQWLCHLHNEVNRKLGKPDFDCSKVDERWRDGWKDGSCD

log2 fold change, inactive:
GGNBP2 (UniProt Q9H3C7) -0.057
GAB1 isoform 2 (UniProt Q13480) -0.14
FPGT (UniProt O14772) 0.005
GALK2 (UniProt Q01415) -0.032
G3BP2 (UniProt Q9UN86) -0.042
GEMIN4 (UniProt P57678) 0.058
FUNDC2 (UniProt Q9BWH2) 0.031
FXN (UniProt Q16595) 0.033
FRRS1 (UniProt Q6ZNA5) 0.014
GGPS1 (UniProt O95749) -0.014
GGH (UniProt Q92820) -0.018
GFPT1 (UniProt Q06210) 0.003
GAPDH (UniProt P04406) 0.005
GCLC (UniProt P48506) -0.003
FUBP1 (UniProt Q96AE4) 0.063
GCHFR (UniProt P30047) 0.085
GART (UniProt C9JZG2) 0.09
GALNT6 (UniProt Q8NCL4) -0.161
FTSJ1 (UniProt Q9UET6) -0.003
G3BP1 (UniProt Q13283) -0.034
GANAB isoform 2 (UniProt Q14697) 0.055
FSCN1 (UniProt Q16658) 0.036
FXR2 (UniProt P51116) -0.029
FUT11 (UniProt Q495W5) -0.047
FYCO1 isoform 4 (UniProt Q9BQS8) 0.041
GFM1 (UniProt Q96RP9) 0.037
GALM (UniProt Q96C23) -0.016
FTH1 (UniProt P02794) 0.007
GGCX (UniProt P38435) 0.112
GGA3 (UniProt Q9NZ52) 0.006
FRG1 (UniProt Q14331) 0.012
GHITM (UniProt Q9H3K2) 0.028
GFER (UniProt P55789) -0.029

Two entries drawn at random from the list so far, as already listed:
log2 fold change, inactive:
GHITM (UniProt Q9H3K2) 0.028
FUT11 (UniProt Q495W5) -0.047
